Source: the supplement of paper PMC10849652
Some of the results follow.

By UniProt entry, the sequences of proteins in these tests, tags left out. Where a name states a change or a piece, a line headed by the entry shows the natural chain unless it says otherwise.
UniProt P55769: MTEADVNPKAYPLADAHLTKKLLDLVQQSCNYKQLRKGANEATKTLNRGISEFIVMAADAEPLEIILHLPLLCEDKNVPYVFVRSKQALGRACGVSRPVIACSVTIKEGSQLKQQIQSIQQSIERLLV
UniProt Q96Q15: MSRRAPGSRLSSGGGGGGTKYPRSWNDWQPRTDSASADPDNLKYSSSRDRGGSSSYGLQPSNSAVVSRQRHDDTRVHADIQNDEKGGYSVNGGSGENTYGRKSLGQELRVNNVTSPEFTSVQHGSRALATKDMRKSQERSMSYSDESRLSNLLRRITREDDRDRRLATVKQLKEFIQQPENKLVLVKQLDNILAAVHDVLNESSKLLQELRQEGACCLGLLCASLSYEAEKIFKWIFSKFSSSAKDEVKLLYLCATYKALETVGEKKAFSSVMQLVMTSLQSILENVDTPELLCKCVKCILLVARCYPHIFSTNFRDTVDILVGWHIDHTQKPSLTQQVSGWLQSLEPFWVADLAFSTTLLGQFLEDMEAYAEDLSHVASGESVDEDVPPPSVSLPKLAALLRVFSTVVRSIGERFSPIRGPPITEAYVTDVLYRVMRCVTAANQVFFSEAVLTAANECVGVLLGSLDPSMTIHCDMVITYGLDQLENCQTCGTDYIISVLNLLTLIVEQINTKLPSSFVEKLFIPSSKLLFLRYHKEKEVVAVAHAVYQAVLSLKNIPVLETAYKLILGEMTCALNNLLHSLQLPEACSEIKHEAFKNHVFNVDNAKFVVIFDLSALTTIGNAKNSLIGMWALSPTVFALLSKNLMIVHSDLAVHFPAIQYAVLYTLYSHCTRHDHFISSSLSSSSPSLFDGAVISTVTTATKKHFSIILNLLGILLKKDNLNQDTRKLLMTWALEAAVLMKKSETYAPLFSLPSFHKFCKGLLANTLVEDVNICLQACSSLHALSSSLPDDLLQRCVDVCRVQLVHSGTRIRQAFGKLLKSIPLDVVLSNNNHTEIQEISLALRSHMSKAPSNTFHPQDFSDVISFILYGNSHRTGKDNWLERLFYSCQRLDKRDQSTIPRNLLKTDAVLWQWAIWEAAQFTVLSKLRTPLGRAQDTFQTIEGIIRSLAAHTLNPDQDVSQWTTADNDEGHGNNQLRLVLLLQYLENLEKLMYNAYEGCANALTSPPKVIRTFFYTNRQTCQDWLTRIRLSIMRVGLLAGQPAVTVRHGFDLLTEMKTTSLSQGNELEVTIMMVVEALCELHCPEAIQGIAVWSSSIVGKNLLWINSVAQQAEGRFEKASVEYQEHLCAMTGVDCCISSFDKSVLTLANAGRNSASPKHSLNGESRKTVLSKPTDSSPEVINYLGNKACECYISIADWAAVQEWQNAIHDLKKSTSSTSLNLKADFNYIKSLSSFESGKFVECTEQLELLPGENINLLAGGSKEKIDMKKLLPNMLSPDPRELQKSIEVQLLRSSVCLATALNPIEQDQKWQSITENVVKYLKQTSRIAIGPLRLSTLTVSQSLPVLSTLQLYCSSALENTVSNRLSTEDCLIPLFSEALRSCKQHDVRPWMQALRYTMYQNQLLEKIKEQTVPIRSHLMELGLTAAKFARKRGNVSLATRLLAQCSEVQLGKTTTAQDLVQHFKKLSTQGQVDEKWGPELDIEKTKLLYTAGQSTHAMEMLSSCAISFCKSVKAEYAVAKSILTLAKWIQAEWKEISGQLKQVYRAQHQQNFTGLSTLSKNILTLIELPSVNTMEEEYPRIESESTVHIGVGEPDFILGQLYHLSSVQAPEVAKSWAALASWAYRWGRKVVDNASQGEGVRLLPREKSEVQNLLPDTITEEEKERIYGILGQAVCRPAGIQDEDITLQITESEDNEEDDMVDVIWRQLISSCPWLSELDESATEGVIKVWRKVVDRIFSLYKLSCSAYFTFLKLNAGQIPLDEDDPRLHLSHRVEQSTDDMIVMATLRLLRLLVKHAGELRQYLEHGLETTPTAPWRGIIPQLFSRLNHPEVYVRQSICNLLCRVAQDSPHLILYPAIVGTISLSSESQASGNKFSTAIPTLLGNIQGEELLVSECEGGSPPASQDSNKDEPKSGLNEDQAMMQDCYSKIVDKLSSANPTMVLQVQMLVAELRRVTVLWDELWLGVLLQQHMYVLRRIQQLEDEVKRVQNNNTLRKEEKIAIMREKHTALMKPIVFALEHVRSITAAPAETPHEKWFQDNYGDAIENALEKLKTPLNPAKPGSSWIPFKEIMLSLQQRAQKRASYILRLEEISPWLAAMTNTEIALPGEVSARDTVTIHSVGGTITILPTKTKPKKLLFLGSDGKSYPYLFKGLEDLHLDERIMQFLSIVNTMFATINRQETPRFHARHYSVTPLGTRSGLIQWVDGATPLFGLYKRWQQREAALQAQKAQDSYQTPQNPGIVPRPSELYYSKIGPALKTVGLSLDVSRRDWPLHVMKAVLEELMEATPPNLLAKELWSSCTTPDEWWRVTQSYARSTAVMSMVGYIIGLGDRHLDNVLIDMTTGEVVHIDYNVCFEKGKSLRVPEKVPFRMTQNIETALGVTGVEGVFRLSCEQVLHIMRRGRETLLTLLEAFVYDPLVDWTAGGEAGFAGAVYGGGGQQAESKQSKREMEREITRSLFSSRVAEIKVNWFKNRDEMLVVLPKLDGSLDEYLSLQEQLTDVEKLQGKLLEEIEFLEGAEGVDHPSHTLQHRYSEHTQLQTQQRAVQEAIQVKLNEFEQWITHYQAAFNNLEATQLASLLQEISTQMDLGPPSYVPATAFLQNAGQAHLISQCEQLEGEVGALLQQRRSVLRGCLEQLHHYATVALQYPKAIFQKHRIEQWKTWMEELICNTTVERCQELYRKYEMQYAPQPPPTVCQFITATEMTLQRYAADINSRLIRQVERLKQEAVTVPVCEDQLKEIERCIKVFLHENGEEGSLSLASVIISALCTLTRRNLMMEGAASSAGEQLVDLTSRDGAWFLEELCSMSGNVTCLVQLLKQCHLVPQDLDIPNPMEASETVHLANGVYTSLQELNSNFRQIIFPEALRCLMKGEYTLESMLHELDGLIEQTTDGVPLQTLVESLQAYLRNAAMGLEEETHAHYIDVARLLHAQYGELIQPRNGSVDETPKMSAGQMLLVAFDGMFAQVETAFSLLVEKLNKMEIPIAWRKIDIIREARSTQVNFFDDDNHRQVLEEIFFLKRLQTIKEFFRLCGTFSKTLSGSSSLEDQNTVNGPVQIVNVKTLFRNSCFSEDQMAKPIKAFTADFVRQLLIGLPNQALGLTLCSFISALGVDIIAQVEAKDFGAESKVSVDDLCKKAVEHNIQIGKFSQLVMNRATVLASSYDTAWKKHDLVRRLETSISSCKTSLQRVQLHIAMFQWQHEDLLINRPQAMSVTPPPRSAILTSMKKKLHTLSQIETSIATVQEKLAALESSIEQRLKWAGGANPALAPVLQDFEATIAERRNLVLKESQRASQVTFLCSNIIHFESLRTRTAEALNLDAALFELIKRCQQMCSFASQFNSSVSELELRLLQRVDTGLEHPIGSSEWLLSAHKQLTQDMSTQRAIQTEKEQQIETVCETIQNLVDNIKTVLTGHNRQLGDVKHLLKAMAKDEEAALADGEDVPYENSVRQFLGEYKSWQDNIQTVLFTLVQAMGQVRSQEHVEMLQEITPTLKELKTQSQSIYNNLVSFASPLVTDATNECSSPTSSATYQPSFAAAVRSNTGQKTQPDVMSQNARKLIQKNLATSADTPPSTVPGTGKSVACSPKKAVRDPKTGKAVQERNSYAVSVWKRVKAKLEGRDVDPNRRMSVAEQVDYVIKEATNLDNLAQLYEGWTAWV
UniProt Q16637, whole entry, looked up: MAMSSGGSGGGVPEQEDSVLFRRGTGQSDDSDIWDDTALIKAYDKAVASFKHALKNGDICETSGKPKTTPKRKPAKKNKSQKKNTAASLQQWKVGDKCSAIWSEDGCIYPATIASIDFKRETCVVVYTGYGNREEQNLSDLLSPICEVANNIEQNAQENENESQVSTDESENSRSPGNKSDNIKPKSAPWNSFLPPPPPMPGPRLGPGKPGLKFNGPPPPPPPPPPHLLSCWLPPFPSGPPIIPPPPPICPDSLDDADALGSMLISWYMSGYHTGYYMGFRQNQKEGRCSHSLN
UniProt P09234, whole entry, looked up: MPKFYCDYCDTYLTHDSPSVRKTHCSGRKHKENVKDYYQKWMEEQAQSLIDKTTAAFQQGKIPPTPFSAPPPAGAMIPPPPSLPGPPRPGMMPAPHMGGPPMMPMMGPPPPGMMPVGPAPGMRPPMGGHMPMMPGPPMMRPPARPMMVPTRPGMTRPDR
UniProt Q53HV7: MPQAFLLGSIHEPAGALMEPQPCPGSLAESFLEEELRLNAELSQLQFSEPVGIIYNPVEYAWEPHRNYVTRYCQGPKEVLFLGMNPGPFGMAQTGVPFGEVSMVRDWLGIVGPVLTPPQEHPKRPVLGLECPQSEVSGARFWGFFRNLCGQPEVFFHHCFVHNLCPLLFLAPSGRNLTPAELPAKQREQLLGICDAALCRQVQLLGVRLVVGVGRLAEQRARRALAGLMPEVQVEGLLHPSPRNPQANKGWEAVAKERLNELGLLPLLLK
UniProt Q9Y5X3: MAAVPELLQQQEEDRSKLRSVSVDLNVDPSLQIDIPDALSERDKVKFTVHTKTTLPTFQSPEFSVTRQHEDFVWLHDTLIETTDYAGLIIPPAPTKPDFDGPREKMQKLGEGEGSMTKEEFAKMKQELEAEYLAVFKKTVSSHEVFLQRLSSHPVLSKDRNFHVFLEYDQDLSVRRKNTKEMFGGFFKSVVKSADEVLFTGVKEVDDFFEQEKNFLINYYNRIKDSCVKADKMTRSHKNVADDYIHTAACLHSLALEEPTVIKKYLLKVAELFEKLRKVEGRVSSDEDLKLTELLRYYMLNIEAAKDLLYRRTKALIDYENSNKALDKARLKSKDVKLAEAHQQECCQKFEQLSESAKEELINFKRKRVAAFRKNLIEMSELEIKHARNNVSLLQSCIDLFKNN
UniProt P51532, whole entry, looked up: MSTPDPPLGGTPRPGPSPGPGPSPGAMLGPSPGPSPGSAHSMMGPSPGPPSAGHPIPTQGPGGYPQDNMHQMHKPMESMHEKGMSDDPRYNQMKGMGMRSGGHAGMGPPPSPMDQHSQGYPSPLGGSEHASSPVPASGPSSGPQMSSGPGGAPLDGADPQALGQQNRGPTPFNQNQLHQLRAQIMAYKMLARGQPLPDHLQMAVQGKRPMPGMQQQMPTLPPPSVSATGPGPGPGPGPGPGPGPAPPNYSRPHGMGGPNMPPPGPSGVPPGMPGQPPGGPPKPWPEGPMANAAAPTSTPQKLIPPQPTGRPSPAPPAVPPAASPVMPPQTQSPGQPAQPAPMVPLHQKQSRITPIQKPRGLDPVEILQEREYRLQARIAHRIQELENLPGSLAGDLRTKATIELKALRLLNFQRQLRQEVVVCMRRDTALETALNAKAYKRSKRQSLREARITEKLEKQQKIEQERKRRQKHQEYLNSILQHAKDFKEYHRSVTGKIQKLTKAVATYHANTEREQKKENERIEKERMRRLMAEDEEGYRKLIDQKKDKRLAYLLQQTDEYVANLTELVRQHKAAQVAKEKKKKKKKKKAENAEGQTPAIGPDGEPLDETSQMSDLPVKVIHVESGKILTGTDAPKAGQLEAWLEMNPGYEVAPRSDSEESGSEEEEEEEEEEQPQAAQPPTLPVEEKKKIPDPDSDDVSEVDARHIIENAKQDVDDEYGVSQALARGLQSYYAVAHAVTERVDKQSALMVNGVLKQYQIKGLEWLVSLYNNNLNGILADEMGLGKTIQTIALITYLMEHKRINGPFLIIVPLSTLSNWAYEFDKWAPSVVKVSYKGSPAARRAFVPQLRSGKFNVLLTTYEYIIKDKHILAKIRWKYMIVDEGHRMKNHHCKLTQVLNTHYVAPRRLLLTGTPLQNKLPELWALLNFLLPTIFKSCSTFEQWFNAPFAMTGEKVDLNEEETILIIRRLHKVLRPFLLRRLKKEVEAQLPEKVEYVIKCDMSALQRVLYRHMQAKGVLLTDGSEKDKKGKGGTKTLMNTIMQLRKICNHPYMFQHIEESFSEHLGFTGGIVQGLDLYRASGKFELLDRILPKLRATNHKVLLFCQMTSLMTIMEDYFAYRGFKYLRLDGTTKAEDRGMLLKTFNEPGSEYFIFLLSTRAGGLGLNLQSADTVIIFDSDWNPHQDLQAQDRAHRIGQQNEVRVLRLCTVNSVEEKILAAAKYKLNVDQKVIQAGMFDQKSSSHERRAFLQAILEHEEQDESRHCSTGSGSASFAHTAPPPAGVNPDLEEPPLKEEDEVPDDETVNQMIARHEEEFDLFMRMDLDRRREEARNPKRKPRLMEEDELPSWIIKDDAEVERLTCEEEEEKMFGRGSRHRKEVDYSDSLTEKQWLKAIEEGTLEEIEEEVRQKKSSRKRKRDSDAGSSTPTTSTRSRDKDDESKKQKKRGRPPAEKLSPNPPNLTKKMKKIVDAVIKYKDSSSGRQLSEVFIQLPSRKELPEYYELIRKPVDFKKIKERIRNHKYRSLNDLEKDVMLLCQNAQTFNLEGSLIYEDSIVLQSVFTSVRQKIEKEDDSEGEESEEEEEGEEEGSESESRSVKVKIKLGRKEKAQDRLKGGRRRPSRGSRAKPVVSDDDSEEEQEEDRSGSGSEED

Experiments:
Test in all cases: log2 fold change, soluble protein after heating vs DMSO (PISA); higher = thermal stabilisation; K562 lysate, 10 uM; active = over 0.2 and 3.5 SD of the protein, either way, in both replicates (recomputed)
vemurafenib = compound: CCCS(=O)(=O)Nc1ccc(F)c(C(=O)c2c[nH]c3ncc(-c4ccc(Cl)cc4)cc23)c1F [vemurafenib]
How it was run: (§1)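 The values are log-two fold changes in thermal stability compared with solvent controls and come from duplicates. They were obtained by TMTpro 16plex LC-MS/MS, with channel sums equalised, on the supernatant after 21,000xg for 90 min. That supernatant came from crude K562 extract at 1 mg/mL protein treated with 10 μM compound for 30 min, heated for 3 min across 48°C-58°C, pooled and brought to 0.5% NP-40 at 4°C.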

[1] = compound: CCCS(=O)(=O)Nc1ccc(F)c(C(=O)c2c[nH]c3ncc(Cl)cc23)c1F
How it was run: as §1

barasertib = compound: CCN(CCCOc1ccc2c(Nc3cc(CC(=O)Nc4cccc(F)c4)[nH]n3)ncnc2c1)CCOP(=O)(O)O [barasertib]
How it was run: as §1

[2] = compound: CC[C@@H]1C(=O)N(C)c2cnc(Nc3ccc(C(=O)NC4CCN(C)CC4)cc3OC)nc2N1C1CCCC1
How it was run: as §1

volasertib = compound: CC[C@@H]1C(=O)N(C)c2cnc(Nc3ccc(C(=O)N[C@H]4CC[C@H](N5CCN(CC6CC6)CC5)CC4)cc3OC)nc2N1C(C)C [volasertib]
How it was run: as §1

[3] = compound: CCn1c(C(=O)N(C2CC2)C2CC2)cc2c3c(ncn3C)c(Nc3cc(C)n(C)n3)nc21
How it was run: as §1

[4] = compound: CCn1cc(-c2ccnc3[nH]c(-c4cccc(CN(C)C)c4)cc23)c(-c2ccc(NC(=O)N(C)C)cc2)n1
How it was run: as §1

[5] = compound: CN1CCC(CNc2ccc3ncc(-c4cccc(OC(F)(F)F)c4)n3n2)CC1
How it was run: as §1

saracatinib = compound: CN1CCN(CCOc2cc(OC3CCOCC3)c3c(Nc4c(Cl)ccc5c4OCO5)ncnc3c2)CC1 [saracatinib]
How it was run: as §1

sotrastaurin = compound: CN1CCN(c2nc(C3=C(c4c[nH]c5ccccc45)C(=O)NC3=O)c3ccccc3n2)CC1 [sotrastaurin]
How it was run: as §1

Measured: log2 fold change

SNRNP70 (UniProt P08621)
inactive: vemurafenib -0.021 | [1] 0.022 | barasertib -0.017 | [2] 0.001 | volasertib 0.028 | [3] -0.025 | [4] 0.051 | [5] 0.007 | saracatinib 0.001 | sotrastaurin -0.007

SMU1 isoform 2 (UniProt Q2TAY7)
inactive: vemurafenib 0.189 | [1] 0.147 | barasertib 0.035 | [2] 0.089 | volasertib 0.092 | [3] -0.127 | [4] -0.399 | [5] 0.136

SNRK (UniProt Q9NRH2)
inactive: vemurafenib 0.187 | [1] -0.055 | barasertib 0.126 | [2] 0.053 | volasertib 0.035 | [3] 0.038 | [4] 0.042 | [5] -0.001 | saracatinib -0.192 | sotrastaurin 0.044

SMCHD1 (UniProt A6NHR9)
inactive: vemurafenib 0.036 | [1] 0.012 | barasertib -0.01 | [2] -0.052 | volasertib -0.018 | [3] 0.037 | [4] -0.15 | [5] 0.031 | saracatinib 0.006 | sotrastaurin 0.055

SMYD5 (UniProt Q6GMV2)
inactive: vemurafenib 0.085 | [1] 0.012 | barasertib -0.015 | [2] -0.033 | volasertib 0.002 | [3] -0.009 | [4] -0.017 | [5] -0.016 | saracatinib 0.038 | sotrastaurin -0.003

SOX5 (UniProt P35711)
inactive: vemurafenib 0.141 | [1] 0.175 | barasertib 0.048 | [2] 0.176 | volasertib -0.034 | [3] 0.049 | [4] -0.043 | [5] -0.043 | saracatinib 0.076 | sotrastaurin -0.131

SMCR8 (UniProt Q8TEV9)
inactive: vemurafenib -0.012 | [1] 0.077 | barasertib 0.021 | [2] -0.004 | volasertib 0.026 | [3] -0.001 | [4] -0.068 | [5] 0.021 | saracatinib -0.018 | sotrastaurin 0.005

SON isoform 9 (UniProt P18583)
inactive: vemurafenib 0.023 | [1] 0.009 | barasertib 0.039 | [2] 0.034 | volasertib 0.03 | [3] 0.023 | [4] 0.065 | [5] 0.074 | saracatinib 0.012 | sotrastaurin 0.044

SMC5 (UniProt Q8IY18)
inactive: vemurafenib 0.017 | [1] -0.001 | barasertib 0.025 | [2] 0.021 | volasertib 0.002 | [3] -0.019 | [4] -0.075 | [5] 0.055 | saracatinib 0.014 | sotrastaurin -0.023

SMARCB1 (UniProt Q12824)
inactive: vemurafenib 0.031 | [1] 0.037 | barasertib -0.003 | [2] -0.065 | volasertib -0.042 | [3] -0.021 | [4] -0.083 | [5] -0.015 | saracatinib 0.005 | sotrastaurin 0.032

SMARCA5 (UniProt O60264)
inactive: vemurafenib -0.008 | [1] -0.011 | barasertib 0.017 | [2] -0.037 | volasertib -0.015 | [3] 0.019 | [4] 0.024 | [5] -0.025 | saracatinib -0.002 | sotrastaurin 0.034

SMC4 (UniProt Q9NTJ3)
inactive: vemurafenib 0.002 | [1] 0.001 | barasertib 0.022 | [2] -0.059 | volasertib -0.041 | [3] 0.006 | [4] 0.053 | [5] -0.118 | saracatinib 0.015 | sotrastaurin 0.012

SNU13 (UniProt P55769)
inactive: vemurafenib 0.047 | [1] 0.036 | barasertib 0.007 | [2] 0.024 | volasertib -0.006 | [3] -0.028 | [4] -0.076 | [5] -0.03 | saracatinib -0.01 | sotrastaurin -0.055

SNX2 (UniProt O60749)
inactive: vemurafenib -0.021 | [1] -0.005 | barasertib 0.015 | [2] -0.023 | volasertib -0.029 | [3] 0.025 | [4] 0.001 | [5] -0.088 | saracatinib 0.009 | sotrastaurin -0.01

SMC3 (UniProt Q9UQE7)
inactive: vemurafenib -0.018 | [1] 0.004 | barasertib -0.004 | [2] 0.008 | volasertib -0.013 | [3] 0.003 | [4] 0.041 | [5] -0.018 | saracatinib -0.011 | sotrastaurin -0.016

SPAG5 (UniProt Q96R06)
inactive: vemurafenib -0.007 | [1] 0.04 | barasertib 0.025 | [2] -0.016 | volasertib -0.004 | [3] -0.01 | [4] -0.004 | [5] -0.174 | saracatinib 0.004 | sotrastaurin 0.009

SNRPA (UniProt P09012)
inactive: vemurafenib 0.01 | [1] -0.019 | barasertib -0.015 | [2] 0.044 | volasertib 0.029 | [3] -0.005 | [4] -0.06 | [5] 0.027 | saracatinib 0.017 | sotrastaurin -0.002

SMG1 (UniProt Q96Q15)
inactive: vemurafenib 0.059 | [1] 0.031 | barasertib 0.08 | [2] 0.017 | volasertib -0.027 | [3] -0.026 | [4] 0.003 | [5] -0.072 | saracatinib 0.039 | sotrastaurin 0.032

Copied from above (7 entries):
SNRNP70 (UniProt P08621)
inactive: vemurafenib -0.021 | [1] 0.022 | barasertib -0.017 | [2] 0.001 | volasertib 0.028 | [3] -0.025 | [4] 0.051 | [5] 0.007 | saracatinib 0.001 | sotrastaurin -0.007

SMU1 isoform 2 (UniProt Q2TAY7)
inactive: vemurafenib 0.189 | [1] 0.147 | barasertib 0.035 | [2] 0.089 | volasertib 0.092 | [3] -0.127 | [4] -0.399 | [5] 0.136

SNRK (UniProt Q9NRH2)
inactive: vemurafenib 0.187 | [1] -0.055 | barasertib 0.126 | [2] 0.053 | volasertib 0.035 | [3] 0.038 | [4] 0.042 | [5] -0.001 | saracatinib -0.192 | sotrastaurin 0.044

SMCHD1 (UniProt A6NHR9)
inactive: vemurafenib 0.036 | [1] 0.012 | barasertib -0.01 | [2] -0.052 | volasertib -0.018 | [3] 0.037 | [4] -0.15 | [5] 0.031 | saracatinib 0.006 | sotrastaurin 0.055

SMYD5 (UniProt Q6GMV2)
inactive: vemurafenib 0.085 | [1] 0.012 | barasertib -0.015 | [2] -0.033 | volasertib 0.002 | [3] -0.009 | [4] -0.017 | [5] -0.016 | saracatinib 0.038 | sotrastaurin -0.003

SOX5 (UniProt P35711)
inactive: vemurafenib 0.141 | [1] 0.175 | barasertib 0.048 | [2] 0.176 | volasertib -0.034 | [3] 0.049 | [4] -0.043 | [5] -0.043 | saracatinib 0.076 | sotrastaurin -0.131

SMCR8 (UniProt Q8TEV9)
inactive: vemurafenib -0.012 | [1] 0.077 | barasertib 0.021 | [2] -0.004 | volasertib 0.026 | [3] -0.001 | [4] -0.068 | [5] 0.021 | saracatinib -0.018 | sotrastaurin 0.005

Carrying on:

SMN1 (UniProt Q16637)
inactive: vemurafenib 0.031 | [1] 0.075 | barasertib -0.056 | [2] -0.026 | volasertib 0 | [3] -0.037 | [4] -0.073 | [5] -0.031 | saracatinib 0.053 | sotrastaurin -0.039

SMYD2 (UniProt Q9NRG4)
inactive: vemurafenib 0.012 | [1] 0.019 | barasertib 0.106 | [2] -0.056 | volasertib -0.126 | [3] 0.037 | [4] -0.005 | [5] -0.047 | saracatinib -0.082 | sotrastaurin -0.047

SOAT1 (UniProt P35610)
inactive: vemurafenib 0.047 | [1] 0.055 | barasertib 0.008 | [2] -0.003 | volasertib -0.009 | [3] -0.061 | [4] -0.063 | [5] -0.062 | saracatinib 0.016 | sotrastaurin 0.019

SNRPC (UniProt P09234)
inactive: vemurafenib 0 | [1] -0.018 | barasertib 0.041 | [2] 0.097 | volasertib 0.069 | [3] 0.02 | [4] 0.011 | [5] -0.014 | saracatinib 0.004 | sotrastaurin 0.009

SMUG1 (UniProt Q53HV7)
inactive: vemurafenib 0.051 | [1] 0.073 | barasertib 0.038 | [2] 0.086 | volasertib 0.008 | [3] -0.002 | [4] -0.051 | [5] -0.042 | saracatinib 0

SNX5 (UniProt Q9Y5X3)
inactive: vemurafenib 0.054 | [1] 0.001 | barasertib -0.015 | [2] -0.037 | volasertib -0.033 | [3] -0.004 | [4] 0.092 | [5] -0.06 | saracatinib 0.006 | sotrastaurin 0.037

SNRNP40 (UniProt Q96DI7)
inactive: vemurafenib -0.032 | [1] 0.019 | barasertib -0.06 | [2] -0.001 | volasertib -0.024 | [3] -0.033 | [4] -0.115 | [5] 0.058 | saracatinib 0.01 | sotrastaurin -0.013

SNRPD1 (UniProt P62314)
inactive: vemurafenib -0.011 | [1] 0.005 | barasertib -0.012 | [2] 0.079 | volasertib 0.022 | [3] 0.008 | [4] -0.097 | [5] 0.053 | saracatinib 0.01 | sotrastaurin -0.002

SMARCC2 (UniProt Q8TAQ2)
inactive: vemurafenib -0.001 | [1] 0.007 | barasertib 0.017 | [2] -0.009 | volasertib -0.023 | [3] -0.003 | [4] -0.012 | [5] -0.014 | saracatinib 0.029 | sotrastaurin 0.015

SMG6 (UniProt Q86US8)
inactive: vemurafenib 0.12 | [1] -0.006 | barasertib 0.014 | [2] -0.139 | volasertib -0.031 | [3] 0.038 | [4] -0.16 | [5] 0.141 | saracatinib 0.036 | sotrastaurin 0.098

SMARCA4 (UniProt P51532)
inactive: vemurafenib 0.011 | [1] 0.006 | barasertib 0.038 | [2] -0.058 | volasertib -0.024 | [3] 0.02 | [4] -0.044 | [5] -0.024 | saracatinib 0.011 | sotrastaurin 0.034

SOS1 (UniProt Q07889)
inactive: vemurafenib -0.002 | [1] 0.02 | barasertib 0.044 | [2] -0.104 | volasertib -0.078 | [3] 0.058 | [4] -0.074 | [5] -0.029 | saracatinib 0.008 | sotrastaurin -0.003
